# PubChem BioAssay AID1259308 | NCATS | 2017
# Purpose: 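Candidate targets for better recombinant protein yield in mammalian cells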 (primary screen)
# Cells: human HEK293 embryonic kidney cells stably expressing firefly luciferase (HEK-CMV-Luc2-Hygro)
# Reagent: single siRNA against human genes, 0.8 pmol siRNA per well
# Time to read-out: 72 h
# Measurement: 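Reporter luminescence and viable-cell signal on separate replicate plates, given as percent of non-targeting control and median/MAD z-scores, plus per-cell luciferase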
# Scale: total luciferase, z-score and total luciferase, % of control: higher = more reporter protein produced; luciferase per cell, z-score: higher = more reporter output per viable cell; viable cells, % of control: higher = more viable cells
# Active means: 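Active when the median/MAD z-score for overall luciferase is greater than 3; a gene was taken forward for validation with new siRNAs if at least two of its three siRNAs passed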
# Meaning of the calls: active = raised luciferase; inactive = no rise
# In all, the deposit lists about 59,000 reagents; below is a random part of them. About 1,510 of all reagents (2.6%) count as active. 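Calls use total luciferase alone and ignore viability, so some active siRNAs may act by altering cell number.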
target,PubChem SID,"total luciferase, z-score","total luciferase, % of control","luciferase per cell, z-score","viable cells, % of control",outcome
IQANK1 (IQ motif and ankyrin repeat containing 1),SID160768638,-1.25,57,-0.262,68.2,inactive
IQANK1 (IQ motif and ankyrin repeat containing 1),SID160768639,-0.686,68.2,-0.263,81.7,inactive
IQANK1 (IQ motif and ankyrin repeat containing 1),SID160768640,0.218,86.2,0.59,82.5,inactive
GRIN1 (glutamate ionotropic receptor NMDA type subunit 1),SID160774458,0.832,98.4,0.345,100,inactive
GRIN1 (glutamate ionotropic receptor NMDA type subunit 1),SID160774468,0.41,90,0.678,84.2,inactive
GRIN1 (glutamate ionotropic receptor NMDA type subunit 1),SID160774478,-1.49,52.3,-1.73,92.1,inactive
SLPI (secretory leukocyte peptidase inhibitor),SID160717020,-0.208,77.7,-0.0885,88.9,inactive
SLPI (secretory leukocyte peptidase inhibitor),SID160724077,-0.278,76.4,0.934,66.7,inactive
SLPI (secretory leukocyte peptidase inhibitor),SID160731762,0.226,86.4,-0.2,102,inactive
NDC1 (NDC1 transmembrane nucleoporin),SID160744142,-0.444,73,-0.0742,83.2,inactive
NDC1 (NDC1 transmembrane nucleoporin),SID160744143,1.96,121,2.2,75.8,inactive
NDC1 (NDC1 transmembrane nucleoporin),SID160744144,-0.314,75.6,-0.11,87,inactive
MYEOV (myeloma overexpressed),SID160738100,0.246,86.8,-0.0762,98.9,inactive
MYEOV (myeloma overexpressed),SID160738101,-0.847,65,0.101,70.8,inactive
MYEOV (myeloma overexpressed),SID160738102,0.74,96.6,1.17,79.3,inactive
"LMAN1L (lectin, mannose binding 1 like)",SID160749352,-0.00566,81.8,-0.216,96.7,inactive
"LMAN1L (lectin, mannose binding 1 like)",SID160749354,-0.0478,80.9,-0.343,99,inactive
"LMAN1L (lectin, mannose binding 1 like)",SID160749355,-0.931,63.4,-0.644,83.9,inactive
UROS (uroporphyrinogen III synthase),SID160718669,-0.405,73.8,-0.818,102,inactive
UROS (uroporphyrinogen III synthase),SID160718670,1.25,107,1.1,89.3,inactive
UROS (uroporphyrinogen III synthase),SID160718671,0.428,90.4,0.299,93.4,inactive
DNAI2 (dynein axonemal intermediate chain 2),SID160747800,-0.838,65.2,-0.908,92.6,inactive
DNAI2 (dynein axonemal intermediate chain 2),SID160747801,-0.295,76,0.11,82.5,inactive
DNAI2 (dynein axonemal intermediate chain 2),SID160747802,-0.932,63.4,-0.915,90.1,inactive
NDRG2 (NDRG family member 2),SID160745974,-1.57,50.7,-0.644,67.1,inactive
NDRG2 (NDRG family member 2),SID160745975,-0.393,74.1,-0.228,87.9,inactive
NDRG2 (NDRG family member 2),SID160745976,0.715,96.1,0.601,91.7,inactive
DTX1 (deltex E3 ubiquitin ligase 1),SID160756997,-0.505,71.8,-0.147,83.5,inactive
DTX1 (deltex E3 ubiquitin ligase 1),SID160757007,-0.738,67.2,-0.523,86.2,inactive
DTX1 (deltex E3 ubiquitin ligase 1),SID160757017,-0.452,72.9,-0.191,85.7,inactive
KRTAP5-8 (keratin associated protein 5-8),SID160724500,-1.07,60.6,-0.23,72,inactive
KRTAP5-8 (keratin associated protein 5-8),SID160724501,1.49,111,1.3,88.4,inactive
KRTAP5-8 (keratin associated protein 5-8),SID160746764,1.38,109,1.06,92.4,inactive
OR6C2 (olfactory receptor family 6 subfamily C member 2),SID160733101,-1.82,45.7,-2.07,88.2,inactive
OR6C2 (olfactory receptor family 6 subfamily C member 2),SID160764550,2.77,137,2.36,82.2,inactive
OR6C2 (olfactory receptor family 6 subfamily C member 2),SID160764551,1.56,113,2.07,73.2,inactive
GGT1 (gamma-glutamyltransferase 1),SID160770632,-0.101,79.9,-0.0156,89.6,inactive
GGT1 (gamma-glutamyltransferase 1),SID160770642,-2.12,39.8,-2.33,82.2,inactive
GGT1 (gamma-glutamyltransferase 1),SID160770653,5.19,185,3.28,87.2,active

Next part (8 carried over from the part before).
target,PubChem SID,"total luciferase, z-score","total luciferase, % of control","luciferase per cell, z-score","viable cells, % of control",outcome
KRTAP5-8 (keratin associated protein 5-8),SID160724501,1.49,111,1.3,88.4,inactive
KRTAP5-8 (keratin associated protein 5-8),SID160746764,1.38,109,1.06,92.4,inactive
OR6C2 (olfactory receptor family 6 subfamily C member 2),SID160733101,-1.82,45.7,-2.07,88.2,inactive
OR6C2 (olfactory receptor family 6 subfamily C member 2),SID160764550,2.77,137,2.36,82.2,inactive
OR6C2 (olfactory receptor family 6 subfamily C member 2),SID160764551,1.56,113,2.07,73.2,inactive
GGT1 (gamma-glutamyltransferase 1),SID160770632,-0.101,79.9,-0.0156,89.6,inactive
GGT1 (gamma-glutamyltransferase 1),SID160770642,-2.12,39.8,-2.33,82.2,inactive
GGT1 (gamma-glutamyltransferase 1),SID160770653,5.19,185,3.28,87.2,active
SCN9A (sodium voltage-gated channel alpha subunit 9),SID160716412,-1.53,51.4,-1.44,83.9,inactive
SCN9A (sodium voltage-gated channel alpha subunit 9),SID160716413,0.694,95.7,0.0552,105,inactive
SCN9A (sodium voltage-gated channel alpha subunit 9),SID160716414,-0.087,80.2,-0.551,104,inactive
"MUC15 (mucin 15, cell surface associated)",SID160758053,0.672,95.2,-0.127,110,inactive
"MUC15 (mucin 15, cell surface associated)",SID160758054,0.374,89.3,0.318,91.8,inactive
"MUC15 (mucin 15, cell surface associated)",SID160758055,-0.368,74.6,-0.514,95.4,inactive
SNAP47 (synaptosome associated protein 47),SID160732360,1.6,114,1.65,82.2,inactive
SNAP47 (synaptosome associated protein 47),SID160755472,-1.05,60.9,-0.365,74.9,inactive
SNAP47 (synaptosome associated protein 47),SID160755474,-0.368,74.6,0.227,78.5,inactive
MTMR7 (myotubularin related protein 7),SID160721485,0.0989,83.9,-0.046,94.8,inactive
MTMR7 (myotubularin related protein 7),SID160721486,0.115,84.2,-0.517,108,inactive
MTMR7 (myotubularin related protein 7),SID160721487,-0.435,73.2,-0.535,94.2,inactive
MYH15 (myosin heavy chain 15),SID160734578,-0.839,65.2,-0.823,90.5,inactive
MYH15 (myosin heavy chain 15),SID160734588,-0.603,69.9,-1.12,105,inactive
MYH15 (myosin heavy chain 15),SID160734599,2.59,133,2.31,81.2,inactive
PIGR (polymeric immunoglobulin receptor),SID160714318,0.693,95.7,0.274,99.5,inactive
PIGR (polymeric immunoglobulin receptor),SID160714319,0.315,88.1,-0.228,105,inactive
PIGR (polymeric immunoglobulin receptor),SID160714320,0.516,92.2,0.403,92.6,inactive
"LRIT1 (leucine rich repeat, Ig-like and transmembrane domains 1)",SID160737636,-2.33,35.6,-2.56,78.1,inactive
"LRIT1 (leucine rich repeat, Ig-like and transmembrane domains 1)",SID160737637,0.694,95.7,-0.0548,108,inactive
"LRIT1 (leucine rich repeat, Ig-like and transmembrane domains 1)",SID160737638,-0.229,77.3,0.0516,85.2,inactive
MSH6 (mutS homolog 6),SID160774672,0.296,87.8,-0.095,101,inactive
MSH6 (mutS homolog 6),SID160774673,0.169,85.2,0.382,86.1,inactive
MSH6 (mutS homolog 6),SID160774674,1.01,102,1.98,67.7,inactive
PEX19 (peroxisomal biogenesis factor 19),SID160715470,-2.62,29.8,-4.04,96.4,inactive
PEX19 (peroxisomal biogenesis factor 19),SID160715471,0.552,92.9,0.549,89.8,inactive
PEX19 (peroxisomal biogenesis factor 19),SID160715472,0.353,88.9,0.213,93.9,inactive
STAP2 (signal transducing adaptor family member 2),SID160743917,-0.199,77.9,-0.32,94.7,inactive
STAP2 (signal transducing adaptor family member 2),SID160743918,0.213,86.1,0.0702,94.5,inactive
STAP2 (signal transducing adaptor family member 2),SID160743919,0.377,89.4,0.446,88.8,inactive
TMEM25 (transmembrane protein 25),SID160735123,-1.19,58.3,-0.876,82.1,inactive
TMEM25 (transmembrane protein 25),SID160752805,-0.65,69,0.247,72.2,inactive
TMEM25 (transmembrane protein 25),SID160752807,0.599,93.8,0.169,100,inactive
HULC (hepatocellular carcinoma up-regulated long non-coding RNA),SID160772000,-0.0456,81,-0.198,95.3,inactive
HULC (hepatocellular carcinoma up-regulated long non-coding RNA),SID160772002,-1.17,58.6,-0.485,74.4,inactive
HULC (hepatocellular carcinoma up-regulated long non-coding RNA),SID160772003,-1.3,56,-1.49,92.6,inactive
